Source: US8227203B2, “Method for testing or screening protein synthesis inhibitors” (The Trustees of the University of Pennsylvania, priority 2007, dated 2012)
At least one compound was matched to its structure with a doubt left.

System: HeLa PV cells
Test: SMN sub-cellular localization by indirect immunofluorescence (anti-SMN 2B1)
Assay type: cell-based
Conditions: longer times (>24 hr), FIG. 5a
Method: HeLa PV were cultured in Dulbecco's modified Eagle's medium (Invitrogen) supplemented with 10% fetal bovine serum (Invitrogen). For screening, cells were seeded onto 384-well plates or, for specific experiments, on glass coverslips the day before treatment. Compounds were added directly into the culture medium to the indicated concentration and the cells were then maintained at 37° C. in a 5% CO2 humidified atmosphere for the duration of the treatment. Dispensing of compounds and other automatic liquid handling steps were performed with a Beckman FX multi-channel system equipped with Hudson Crane robotic systems. […]
Indirect immunofluorescence on HeLa PV cells was performed as follows: HeLa cells, plated on glass coverslips, were briefly washed with PBS, fixed in 2% formaldehyde/PBS for 20 minutes at room temperature, permeabilized in 0.5% Triton X-100/PBS for 5 min at room temperature. […] Images were analyzed using automated algorithms with parameters set to calculate mean pixel intensity in each nucleus (defined by DAPI staining and acquired in a separate channel), cytoplasm, and total cell, as well as the relevant calculated ratios of these values. […]

CCC(=O)CCCCC[C@@H]1NC(=O)[C@H]2CCCCN2C(=O)[C@H]([C@@H](C)CC)NC(=O)[C@H](Cc2cn(OC)c3ccccc23)NC1=O [apicidin]
nuclear translocation of SMN at longer times: caused the same effect as protein synthesis inhibitors
